Test results reported in PubChem BioAssay AID1487 (National Center for Advancing Translational Sciences (NCATS), 2009).
This is one part of the list. The main result of the screen is listed elsewhere. These columns were measured beside it and carry no call. The list favours compounds with an active or inconclusive main result. Words in brackets tell the shape of the fitted curve; partial curves, single points and poor fits give uncertain potencies.

Assay: qHTS Assay for Modulators of Lamin A Splicing
Conditions: HeLa LMNA splicing GFP/RFP minigene ratio, 48 h
Outline: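 S3 HeLa stable clones carrying a lamin A-EGFP splicing minigene plus DsRed2 were seeded at 600 cells/well in Opti-MEM with 2% FBS, pin-dosed and incubated 48 h at 37°C. Acumen cytometry (488 nm) gave the GFP/RFP total-intensity ratio.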

[1] = measured here: RFP viability control channel
[2] = measured here: GFP splicing reporter channel

With `COc1ccc(C(=O)N(Cc2ccc(N(C)C)cc2)C2CCS(=O)(=O)C2)cc1` (centres undefined) as the compound, how does the AC50 [1] read?
The AC50 was 14.1 µM [rising, single point].

For `COc1ccc(-c2nnc(SCC(=O)N3CCC(Cc4ccccc4)CC3)o2)cc1OC`, which AC50 [2] is on record?
Its AC50 is 17.8 µM [rising, single point].

What about the AC50 [1] of the same compound?
Its AC50 is 17.8 µM [rising, single point].

Which AC50 [2] does the source give for `N#Cc1ccccc1-c1ccc2ncnc(NCc3cccs3)c2c1` here?
The AC50 was 15.8 µM [falling, partial curve].

And the AC50 [1]?
Its AC50 is 15.8 µM [falling, partial curve].

With `Clc1ccc(-c2nnc(-c3ccco3)nc2N2CCCCC2)cc1` as the compound, how does the AC50 [2] read?
The AC50 was 10 µM [rising, partial curve, poor fit].

And the AC50 [1]?
The AC50 was 8.91 µM [rising, single point].

For `CCN1C(=O)c2ccccc2Sc2ccc(NC(=O)c3ccc(C#N)cc3)cc21`, which AC50 [1] is on record?
Its AC50 is 0.562 µM [falling, full curve, poor fit].

Which AC50 [1] does the source give for `Cc1ccc(CN2CCN(CC(=O)O)C2=O)cc1` here?
The AC50 was 3.98 µM [falling, single point].

With `Cc1nnc(C)n1/N=C/c1cccc(Oc2ccccc2)c1` as the compound, how does the AC50 [1] read?
The AC50 was 35.5 µM [rising, single point].

Which AC50 [2] does the source give for `Cc1nn(-c2ccccc2)c(C)c1/C=N/n1c(-c2ccc(C(C)(C)C)cc2)n[nH]c1=S` here?
Its AC50 is 17.8 µM [falling, single point].

And the AC50 [1]?
Its AC50 is 15.8 µM [falling, single point].

Which results are given for `CN(C)c1ccc(C(=S)N2CCN(c3ccccc3)CC2)cc1`?
AC50 [2]: 17.8 µM [rising, single point]; AC50 [1]: 14.1 µM [rising, single point]

For `Cc1c(C(=O)N(C)C)sc2c1c(=O)n(-c1ccccc1C(F)(F)F)c(=O)n2Cc1cccc(F)c1`, which AC50 [2] is on record?
Its AC50 is 2 µM [rising, partial curve].

And the AC50 [1]?
The AC50 was 0.0251 µM [rising, full curve, poor fit].

Which AC50 [2] does the source give for `COc1cc(S(=O)(=O)N2CCN(c3ccccc3)CC2)ccc1F` here?
Its AC50 is 0.0251 µM [falling, full curve, poor fit].

What about the AC50 [1] of the same compound?
Its AC50 is 0.0708 µM [falling, full curve].

For `Nc1c(C(=O)c2ccccc2)sc(Nc2ccc(Cl)c(Cl)c2)c1C(=O)Nc1ccccc1`, which AC50 [2] is on record?
The AC50 was 3.16 µM [falling, single point].

For `COc1ccc(OCCNC(=O)c2ccccc2OCC(=O)Nc2ccc(NC(C)=O)cc2)cc1`, which AC50 [2] is on record?
Its AC50 is 0.112 µM [falling, full curve, poor fit].

What about the AC50 [1] of the same compound?
Its AC50 is 0.126 µM [falling, partial curve, poor fit].

With `COc1ccc(OCc2cccc(C(=O)N3CCCC3)c2)cc1` as the compound, how does the AC50 [1] read?
Its AC50 is 35.5 µM [rising, single point].

For `Cc1ccc(-n2nnnc2SC(C)C(=O)Nc2ccccc2-c2ccccc2)cc1` (centres undefined), which AC50 [1] is on record?
The AC50 was 35.5 µM [rising, single point].

Which AC50 [2] does the source give for `COC1=C(OC)C(=O)c2ccccc2C1=O` here?
Its AC50 is 12.6 µM [falling, partial curve, poor fit].

What about the AC50 [1] of the same compound?
The AC50 was 12.6 µM [falling, partial curve, poor fit].

With `CCCC1(c2ccccc2)NC(=O)N(CC(=O)Nc2cc(C)on2)C1=O` (centres undefined) as the compound, how does the AC50 [1] read?
Its AC50 is 11.2 µM [rising, partial curve, poor fit].

For `NS(=O)(=O)c1cccnc1Nc1c(Cl)cccc1Cl`, which AC50 [2] is on record?
The AC50 was 31.6 µM [falling, single point].

What about the AC50 [1] of the same compound?
The AC50 was 35.5 µM [falling, single point].

For `Cc1ccc(-n2c(SCC(=O)Nc3ccc4c(c3)OCCO4)nnc2-c2ccco2)cc1`, which AC50 [2] is on record?
The AC50 was 3.98 µM [rising, full curve, poor fit].

For `O=C(C1CC2CCC1C2)N1CCN(Cc2ccc3c(c2)OCO3)CC1` (centres undefined), which AC50 [1] is on record?
The AC50 was 4.47 µM [rising, partial curve, poor fit].

For `COC(=O)c1[nH]c2c(c1C)C(=O)CC(c1ccccc1)C2` (centres undefined), which AC50 [1] is on record?
Its AC50 is 1.26 µM [rising, full curve].

For `CCCCn1c(SCC(=O)N2CCN(c3ccccc3)CC2)nc2ccsc2c1=O`, which AC50 [2] is on record?
Its AC50 is 8.91 µM [rising, partial curve].

What about the AC50 [1] of the same compound?
The AC50 was 14.1 µM [rising, single point].

For `O=C1CSC(=S)N1Cc1cccnc1`, which AC50 [1] is on record?
The AC50 was 2.82 µM [rising, partial curve, poor fit].

Which AC50 [1] does the source give for `Cc1ccc(/C(C#N)=C\c2cn(C)c3ccccc23)cc1` here?
The AC50 was 31.6 µM [rising, single point].

Which AC50 [1] does the source give for `COc1cc(C2C(C#N)=C(N)Oc3c2c(-c2ccccc2)nn3-c2ccccc2)cc(OC)c1OC` (centres undefined) here?
The AC50 was 15.8 µM [rising, single point].

For `CC(C)(C)NC(=O)CSc1nsc(SCC(=O)NC(C)(C)C)c1C#N`, which AC50 [1] is on record?
The AC50 was 22.4 µM [rising, partial curve].

With `Cc1cccc(OCCCn2c(CCNC(=O)C(C)C)nc3ccccc32)c1` as the compound, how does the AC50 [2] read?
The AC50 was 20 µM [rising, single point].

What about the AC50 [1] of the same compound?
Its AC50 is 35.5 µM [rising, single point].

What does the source list for `Cc1ccc(C(=O)N2CCN(c3ccccc3)CC2)cc1S(=O)(=O)N1CCCC1`?
AC50 [2]: 6.31 µM [rising, partial curve]; AC50 [1]: 14.1 µM [rising, partial curve]

Which AC50 [2] does the source give for `CC(C)(C)c1ccccc1NC(=O)c1c(O)c2cccc3c2n(c1=O)CC3` here?
The AC50 was 35.5 µM [rising, single point].

And the AC50 [1]?
Its AC50 is 35.5 µM [rising, single point].

For `Cc1ccc(-c2cc(C(F)F)nc(N3CCOCC3)n2)cc1`, which AC50 [1] is on record?
Its AC50 is 3.98 µM [falling, partial curve].

For `CCCCc1ccc(NC(=S)NCCc2ccc(S(N)(=O)=O)cc2)cc1`, which AC50 [1] is on record?
Its AC50 is 1.58 µM [falling, partial curve, poor fit].

Which results are given for `CCCCc1nn2c(=O)cc(COC(=O)c3ccccc3NC(=O)c3cccc(C)c3)nc2s1`?
AC50 [2]: 6.31 µM [rising, partial curve, poor fit]; AC50 [1]: 3.55 µM [rising, full curve, poor fit]

Which AC50 [2] does the source give for `COc1ccccc1NC(=O)CCSc1nnc(-c2ccco2)o1` here?
The AC50 was 12.6 µM [falling, partial curve].

With `Cc1ccc(Cl)cc1NS(=O)(=O)c1ccc(N2CCCCS2(=O)=O)cc1` as the compound, how does the AC50 [2] read?
Its AC50 is 14.1 µM [falling, single point].
